Positions count from the first letter of the chain named. No constants are given. Whether binding was seen depends on the method and setting. Binding seen in cells or lysates may run through a third protein. Some binding calls cover weakened binding; strength is not graded here. Where a sequence is shown, tags or fusion partners need not be part of it.

Protein sequences, listed by entry. Tags and fused reporters are not part of them. Lines headed by an entry give the natural chain unless they say otherwise; changes in a name come on top.
UniProt Q93009: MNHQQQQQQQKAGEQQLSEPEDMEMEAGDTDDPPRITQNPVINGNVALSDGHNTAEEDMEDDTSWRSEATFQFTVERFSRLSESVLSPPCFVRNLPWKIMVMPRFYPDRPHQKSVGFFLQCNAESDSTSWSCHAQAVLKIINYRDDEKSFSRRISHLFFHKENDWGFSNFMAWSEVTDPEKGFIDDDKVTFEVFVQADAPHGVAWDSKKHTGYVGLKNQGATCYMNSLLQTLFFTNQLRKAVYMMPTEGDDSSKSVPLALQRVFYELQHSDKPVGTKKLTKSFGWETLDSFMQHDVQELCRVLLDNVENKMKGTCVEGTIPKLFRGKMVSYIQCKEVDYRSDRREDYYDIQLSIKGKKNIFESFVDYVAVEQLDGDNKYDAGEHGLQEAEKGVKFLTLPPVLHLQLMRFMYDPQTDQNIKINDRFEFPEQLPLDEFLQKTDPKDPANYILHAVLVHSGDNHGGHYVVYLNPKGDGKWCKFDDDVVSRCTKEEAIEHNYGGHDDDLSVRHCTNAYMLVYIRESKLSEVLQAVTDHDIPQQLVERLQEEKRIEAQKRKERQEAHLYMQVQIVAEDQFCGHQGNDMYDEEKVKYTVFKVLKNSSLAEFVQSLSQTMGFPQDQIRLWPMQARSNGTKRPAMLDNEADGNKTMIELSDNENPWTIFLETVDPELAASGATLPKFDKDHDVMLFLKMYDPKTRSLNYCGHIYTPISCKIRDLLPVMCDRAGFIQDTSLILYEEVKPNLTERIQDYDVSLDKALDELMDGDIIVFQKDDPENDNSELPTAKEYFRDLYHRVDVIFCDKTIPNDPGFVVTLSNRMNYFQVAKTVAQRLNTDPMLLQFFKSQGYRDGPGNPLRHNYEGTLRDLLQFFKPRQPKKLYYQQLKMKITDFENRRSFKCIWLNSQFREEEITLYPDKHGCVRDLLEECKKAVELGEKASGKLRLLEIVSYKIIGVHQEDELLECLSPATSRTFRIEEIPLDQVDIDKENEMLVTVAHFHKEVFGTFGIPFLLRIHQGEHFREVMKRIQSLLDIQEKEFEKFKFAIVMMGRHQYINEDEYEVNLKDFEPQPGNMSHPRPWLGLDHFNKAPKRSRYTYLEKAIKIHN

The text below walks through data of PMC10147604.

For one assay, the target named is T1, HA-NGN3^6SA (UniProt P70661).
T1 sequence: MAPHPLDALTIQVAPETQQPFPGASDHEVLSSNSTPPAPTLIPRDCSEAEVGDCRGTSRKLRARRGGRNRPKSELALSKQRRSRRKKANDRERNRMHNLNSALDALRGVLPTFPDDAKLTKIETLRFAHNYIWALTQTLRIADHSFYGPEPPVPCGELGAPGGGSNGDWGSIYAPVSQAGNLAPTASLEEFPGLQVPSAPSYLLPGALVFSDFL
Put plainly: co-IP; HA-NGN3 (wildtype or mutant) precipitated with anti-HA magnetic beads from HEK293A lysates, overnight at 4 °C; cells treated with 1 µM MG132 for 6 h; NP-40 buffer; USP7 detected by immunoblot. (A western blot detects proteins with antibodies after separation by electrophoresis.)

In assay [1] the target is T2, N-terminally HA-tagged NGN3 (HA-NGN3^WT) (UniProt P70661).
T2 sequence: T1 sequence with A14S, A38S, A160S, A174S, A183S, A199S
The assay is described as above.

For “Flag-tagged wild-type USP7 (Flag-USP7^WT) (from UniProt Q93009 1-1102) (enzyme)”, the binding entry (with HA-NGN3^6SA; in assay [1]) was “binds” in each case. As to “catalytically inactive USP7 (Flag-USP7^C223A) (from UniProt Q93009 1-1102) (enzyme)”, the binding result in assay [1] is recorded as “binds”. On the same count and under the same terms, next, “endogenous USP7 (from UniProt Q93009 1-1102) (enzyme)”: “binds”.
